Measured values published in the supplement of paper PMC10849652.
Some of the results follow.

The chains behind the UniProt entries cited, without tags or fusion partners. Where a name states a change or a piece, a line headed by the entry shows the natural chain unless it says otherwise.
UniProt Q9NU22: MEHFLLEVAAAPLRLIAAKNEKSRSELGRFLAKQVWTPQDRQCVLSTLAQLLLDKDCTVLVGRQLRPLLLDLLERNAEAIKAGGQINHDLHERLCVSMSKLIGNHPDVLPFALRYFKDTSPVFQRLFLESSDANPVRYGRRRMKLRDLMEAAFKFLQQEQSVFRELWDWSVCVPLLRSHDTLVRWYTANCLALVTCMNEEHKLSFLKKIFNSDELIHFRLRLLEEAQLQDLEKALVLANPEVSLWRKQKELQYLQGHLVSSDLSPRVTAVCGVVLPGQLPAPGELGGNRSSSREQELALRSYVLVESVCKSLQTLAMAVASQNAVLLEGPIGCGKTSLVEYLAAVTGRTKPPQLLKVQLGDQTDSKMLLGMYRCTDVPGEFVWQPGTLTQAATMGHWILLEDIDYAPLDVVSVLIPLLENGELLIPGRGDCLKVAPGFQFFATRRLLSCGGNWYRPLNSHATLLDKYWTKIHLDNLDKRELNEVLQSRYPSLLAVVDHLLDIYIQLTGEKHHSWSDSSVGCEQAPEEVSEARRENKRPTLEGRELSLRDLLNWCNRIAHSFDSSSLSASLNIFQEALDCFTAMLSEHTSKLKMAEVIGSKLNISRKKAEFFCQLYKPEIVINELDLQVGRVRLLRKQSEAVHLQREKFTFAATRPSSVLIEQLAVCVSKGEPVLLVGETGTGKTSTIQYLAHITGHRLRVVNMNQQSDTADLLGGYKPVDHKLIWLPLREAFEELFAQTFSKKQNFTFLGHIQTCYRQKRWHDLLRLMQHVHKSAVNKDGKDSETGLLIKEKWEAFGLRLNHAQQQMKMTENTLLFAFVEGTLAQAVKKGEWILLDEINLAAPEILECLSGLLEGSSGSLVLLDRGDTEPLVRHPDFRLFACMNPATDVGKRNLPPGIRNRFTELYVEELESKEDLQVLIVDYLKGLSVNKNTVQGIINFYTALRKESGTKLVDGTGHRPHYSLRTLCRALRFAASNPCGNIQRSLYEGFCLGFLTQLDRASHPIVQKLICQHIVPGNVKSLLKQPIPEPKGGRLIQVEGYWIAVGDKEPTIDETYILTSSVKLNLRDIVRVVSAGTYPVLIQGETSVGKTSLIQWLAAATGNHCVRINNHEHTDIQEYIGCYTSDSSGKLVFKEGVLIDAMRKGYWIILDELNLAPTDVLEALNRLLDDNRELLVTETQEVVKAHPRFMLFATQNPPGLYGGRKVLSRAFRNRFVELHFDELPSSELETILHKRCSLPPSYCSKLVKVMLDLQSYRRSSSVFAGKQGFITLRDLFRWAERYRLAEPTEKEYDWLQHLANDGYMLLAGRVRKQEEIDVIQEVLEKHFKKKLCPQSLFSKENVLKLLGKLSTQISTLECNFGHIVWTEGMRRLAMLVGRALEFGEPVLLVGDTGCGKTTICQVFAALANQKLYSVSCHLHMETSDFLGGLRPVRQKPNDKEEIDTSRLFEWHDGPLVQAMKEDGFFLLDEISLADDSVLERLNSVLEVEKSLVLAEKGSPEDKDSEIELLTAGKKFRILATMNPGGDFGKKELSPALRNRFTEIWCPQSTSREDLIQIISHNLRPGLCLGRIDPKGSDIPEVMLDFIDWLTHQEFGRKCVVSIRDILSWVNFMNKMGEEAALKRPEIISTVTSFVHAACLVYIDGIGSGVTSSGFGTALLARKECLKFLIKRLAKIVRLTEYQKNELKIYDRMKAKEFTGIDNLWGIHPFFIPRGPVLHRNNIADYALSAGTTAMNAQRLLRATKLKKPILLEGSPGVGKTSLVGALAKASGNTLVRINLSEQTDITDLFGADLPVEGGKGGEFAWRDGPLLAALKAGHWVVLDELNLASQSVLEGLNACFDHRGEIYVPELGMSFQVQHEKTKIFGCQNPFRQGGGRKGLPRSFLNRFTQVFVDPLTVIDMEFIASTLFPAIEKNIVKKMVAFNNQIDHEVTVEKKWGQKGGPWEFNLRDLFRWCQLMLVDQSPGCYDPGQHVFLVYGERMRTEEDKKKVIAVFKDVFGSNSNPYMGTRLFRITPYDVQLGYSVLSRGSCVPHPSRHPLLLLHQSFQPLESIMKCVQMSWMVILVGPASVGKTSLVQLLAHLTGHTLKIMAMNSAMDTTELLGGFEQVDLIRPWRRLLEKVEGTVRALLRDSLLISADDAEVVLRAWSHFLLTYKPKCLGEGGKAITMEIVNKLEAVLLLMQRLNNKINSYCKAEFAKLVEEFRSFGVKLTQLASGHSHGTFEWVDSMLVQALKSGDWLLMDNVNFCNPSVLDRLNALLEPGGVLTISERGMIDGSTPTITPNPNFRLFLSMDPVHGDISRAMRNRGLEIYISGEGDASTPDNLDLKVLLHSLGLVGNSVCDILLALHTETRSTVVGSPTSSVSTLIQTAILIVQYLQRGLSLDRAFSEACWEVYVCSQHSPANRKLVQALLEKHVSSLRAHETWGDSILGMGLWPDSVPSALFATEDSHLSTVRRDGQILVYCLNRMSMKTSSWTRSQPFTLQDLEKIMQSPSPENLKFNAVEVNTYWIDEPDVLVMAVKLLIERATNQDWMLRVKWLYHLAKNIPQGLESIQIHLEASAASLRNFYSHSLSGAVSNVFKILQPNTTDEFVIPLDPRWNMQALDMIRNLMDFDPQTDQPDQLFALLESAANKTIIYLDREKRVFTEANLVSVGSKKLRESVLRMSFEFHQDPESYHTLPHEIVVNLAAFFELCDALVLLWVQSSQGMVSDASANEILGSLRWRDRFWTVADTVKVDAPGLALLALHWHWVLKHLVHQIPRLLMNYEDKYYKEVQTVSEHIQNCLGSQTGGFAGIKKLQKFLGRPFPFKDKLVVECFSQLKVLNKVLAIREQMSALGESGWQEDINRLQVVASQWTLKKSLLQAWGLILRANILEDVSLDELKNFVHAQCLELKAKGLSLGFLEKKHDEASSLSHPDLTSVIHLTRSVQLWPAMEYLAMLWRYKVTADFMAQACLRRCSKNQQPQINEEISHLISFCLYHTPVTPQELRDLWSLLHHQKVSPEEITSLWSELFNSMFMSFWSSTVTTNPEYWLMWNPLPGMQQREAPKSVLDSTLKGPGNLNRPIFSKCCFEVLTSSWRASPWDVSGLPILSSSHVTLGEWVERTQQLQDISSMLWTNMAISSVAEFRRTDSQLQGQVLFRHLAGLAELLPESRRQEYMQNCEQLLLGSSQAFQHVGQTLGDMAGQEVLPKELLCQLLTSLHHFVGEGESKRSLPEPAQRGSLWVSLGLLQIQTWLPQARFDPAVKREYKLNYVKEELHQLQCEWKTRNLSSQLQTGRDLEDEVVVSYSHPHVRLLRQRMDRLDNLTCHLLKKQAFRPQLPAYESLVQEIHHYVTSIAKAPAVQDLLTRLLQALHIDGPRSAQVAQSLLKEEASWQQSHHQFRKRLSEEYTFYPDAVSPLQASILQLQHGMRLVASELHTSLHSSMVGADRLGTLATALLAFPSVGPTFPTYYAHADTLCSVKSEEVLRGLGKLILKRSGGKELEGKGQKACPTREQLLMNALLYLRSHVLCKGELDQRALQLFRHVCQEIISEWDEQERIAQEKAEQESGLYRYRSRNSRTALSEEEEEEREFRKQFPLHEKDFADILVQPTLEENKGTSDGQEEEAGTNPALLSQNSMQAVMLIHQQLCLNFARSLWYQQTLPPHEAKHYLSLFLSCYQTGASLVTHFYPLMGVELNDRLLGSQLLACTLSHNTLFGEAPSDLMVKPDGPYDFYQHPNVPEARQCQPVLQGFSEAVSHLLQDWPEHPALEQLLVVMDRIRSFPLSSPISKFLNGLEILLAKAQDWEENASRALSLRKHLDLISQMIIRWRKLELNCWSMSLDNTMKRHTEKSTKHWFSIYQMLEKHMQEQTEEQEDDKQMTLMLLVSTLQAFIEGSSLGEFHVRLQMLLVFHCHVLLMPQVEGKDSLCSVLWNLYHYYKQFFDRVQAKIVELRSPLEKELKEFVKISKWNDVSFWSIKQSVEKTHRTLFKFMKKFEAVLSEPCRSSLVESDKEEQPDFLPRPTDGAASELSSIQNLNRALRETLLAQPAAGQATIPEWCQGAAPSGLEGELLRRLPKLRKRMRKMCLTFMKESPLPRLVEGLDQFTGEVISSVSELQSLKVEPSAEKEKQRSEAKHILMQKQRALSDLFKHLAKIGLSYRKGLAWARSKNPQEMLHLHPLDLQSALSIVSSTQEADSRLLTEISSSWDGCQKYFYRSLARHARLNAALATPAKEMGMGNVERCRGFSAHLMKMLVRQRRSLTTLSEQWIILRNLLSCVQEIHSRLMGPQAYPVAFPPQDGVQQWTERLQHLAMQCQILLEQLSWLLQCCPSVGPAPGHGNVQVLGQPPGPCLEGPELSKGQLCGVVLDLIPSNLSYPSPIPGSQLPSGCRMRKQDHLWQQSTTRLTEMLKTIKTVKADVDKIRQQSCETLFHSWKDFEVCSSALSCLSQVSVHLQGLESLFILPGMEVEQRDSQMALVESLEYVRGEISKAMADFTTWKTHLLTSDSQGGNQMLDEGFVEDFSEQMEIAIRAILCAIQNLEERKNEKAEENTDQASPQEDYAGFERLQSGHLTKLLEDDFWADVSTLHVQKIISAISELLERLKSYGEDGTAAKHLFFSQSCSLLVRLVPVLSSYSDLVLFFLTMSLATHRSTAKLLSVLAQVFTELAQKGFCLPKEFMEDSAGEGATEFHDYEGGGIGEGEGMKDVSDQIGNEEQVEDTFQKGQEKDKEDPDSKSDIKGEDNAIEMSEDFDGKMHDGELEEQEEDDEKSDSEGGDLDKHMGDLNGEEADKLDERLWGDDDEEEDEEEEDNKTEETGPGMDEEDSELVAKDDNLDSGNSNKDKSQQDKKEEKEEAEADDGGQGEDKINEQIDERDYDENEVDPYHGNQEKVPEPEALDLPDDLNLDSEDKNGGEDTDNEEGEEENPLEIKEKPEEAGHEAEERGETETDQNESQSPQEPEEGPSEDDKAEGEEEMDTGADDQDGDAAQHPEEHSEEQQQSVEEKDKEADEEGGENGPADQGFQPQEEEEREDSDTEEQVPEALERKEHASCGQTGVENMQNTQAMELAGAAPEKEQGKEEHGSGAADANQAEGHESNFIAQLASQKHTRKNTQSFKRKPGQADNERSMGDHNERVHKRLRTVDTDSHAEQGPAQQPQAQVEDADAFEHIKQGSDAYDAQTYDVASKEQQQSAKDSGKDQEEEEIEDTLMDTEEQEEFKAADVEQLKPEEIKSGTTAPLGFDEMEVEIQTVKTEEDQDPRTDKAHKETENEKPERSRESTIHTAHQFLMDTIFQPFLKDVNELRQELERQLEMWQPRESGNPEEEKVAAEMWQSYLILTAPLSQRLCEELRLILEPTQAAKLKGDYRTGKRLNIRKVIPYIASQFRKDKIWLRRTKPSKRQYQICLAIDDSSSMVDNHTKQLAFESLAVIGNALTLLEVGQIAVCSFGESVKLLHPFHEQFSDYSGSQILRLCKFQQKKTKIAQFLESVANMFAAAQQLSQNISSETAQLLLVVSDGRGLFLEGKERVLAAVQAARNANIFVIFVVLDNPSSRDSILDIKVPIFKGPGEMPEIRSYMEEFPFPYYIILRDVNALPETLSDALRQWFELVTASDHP
UniProt P31153, whole entry, looked up: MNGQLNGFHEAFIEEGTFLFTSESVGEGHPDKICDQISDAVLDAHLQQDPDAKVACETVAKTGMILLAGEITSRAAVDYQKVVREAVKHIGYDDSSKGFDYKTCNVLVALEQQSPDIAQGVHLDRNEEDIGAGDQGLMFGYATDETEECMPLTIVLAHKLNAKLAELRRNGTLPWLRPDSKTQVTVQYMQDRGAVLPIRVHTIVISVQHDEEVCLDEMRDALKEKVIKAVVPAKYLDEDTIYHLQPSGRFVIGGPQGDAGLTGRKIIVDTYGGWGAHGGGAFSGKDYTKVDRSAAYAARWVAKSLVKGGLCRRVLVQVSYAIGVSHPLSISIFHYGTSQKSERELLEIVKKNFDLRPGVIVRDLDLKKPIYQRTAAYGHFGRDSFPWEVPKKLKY
UniProt Q14814: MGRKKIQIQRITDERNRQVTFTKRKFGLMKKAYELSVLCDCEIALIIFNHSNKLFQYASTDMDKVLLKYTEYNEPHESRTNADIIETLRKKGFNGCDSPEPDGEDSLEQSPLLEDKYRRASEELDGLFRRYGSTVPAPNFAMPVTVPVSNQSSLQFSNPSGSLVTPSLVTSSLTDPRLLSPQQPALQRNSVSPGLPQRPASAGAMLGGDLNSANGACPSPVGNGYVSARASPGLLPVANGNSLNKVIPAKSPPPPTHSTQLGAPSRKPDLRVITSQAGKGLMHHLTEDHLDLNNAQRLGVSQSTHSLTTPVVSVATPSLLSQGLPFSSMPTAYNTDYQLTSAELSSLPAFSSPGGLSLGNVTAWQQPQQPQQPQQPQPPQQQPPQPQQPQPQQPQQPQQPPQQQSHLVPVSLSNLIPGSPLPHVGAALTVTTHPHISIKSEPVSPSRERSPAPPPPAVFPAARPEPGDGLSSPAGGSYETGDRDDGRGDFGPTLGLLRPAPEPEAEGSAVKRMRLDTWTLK

Legend:
Assay in all cases: log2 fold change, soluble protein after heating vs DMSO (PISA); higher = thermal stabilisation; K562 cells, 10 uM, 30 min; active = over 0.2 and 3.5 SD of the protein, either way, in both replicates (recomputed)
erlotinib = compound: C#Cc1cccc(Nc2ncnc3cc(OCCOC)c(OCCOC)cc23)c1 [erlotinib]
How it was run: (§1)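 Quantification of soluble protein used TMTpro 16plex LC-MS/MS, with channel sums equalised. Samples were the supernatant after 21,000xg for 90 min of pooled aliquots from K562 cells (2×10^6 cells/mL) treated with 10 μM compound for 30 min, heated for 3 min over 48°C-58°C, and extracted in PBS with 0.5% NP-40 at 4°C. Values, from duplicates, describe thermal stability against control samples on a log2 fold-change scale.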

[1] = compound: C/C(=N\NC(=O)C1=CC(=CC=C1)S(=O)(=O)N2CCOCC2)/C3=C(C=CC(=C3)Cl)O
How it was run: as §1

[2] = compound: C1=CC(=C(C=C1Cl)C2=NC3=NC=CN=C3C(=N2)NC4=CC=NC=C4)F
How it was run: as §1

[3] = compound: C1=CC(=CC=C1C2=NC3=C(N2)C=C(C=C3)C(=O)N)OC4=CC=C(C=C4)Cl
How it was run: as §1

[4] = compound: C1=CC2=C(C=CC(=C2)/C=C\3/C(=O)NC(=NCC4=CC=CS4)S3)N=C1
How it was run: as §1

[5] = compound: C1=CC2=NC=CN=C2C=C1/C=C/3\C(=O)NC(=O)S3
How it was run: as §1

[6] = compound: C1=CC=C(C=C1)C2=NC(=C(N2)C3=CC=NC=C3)C4=CC(=C(C=C4)Cl)O
How it was run: as §1

[7] = compound: C1=CC=C2C(=C1)C3=NNC4=CC=CC(=C43)C2=O
How it was run: as §1

[8] = compound: C1CCN(C1)C(=O)NC2=CC=CC(=C2)NC3=NC=C(C(=N3)NCCC4=CN=CN4)Br
How it was run: as §1

[9] = compound: C1CN(CCC1(CC2=CC=C(C=C2)Cl)N)C3=NC=NC4=C3C=CN4
How it was run: as §1

Measured: log2 fold change

MDN1 (UniProt Q9NU22)
inactive: erlotinib 0.063 | [1] 0.11 | [2] 0.02 | [3] -0.025 | [4] 0.144 | [5] 0.037 | [6] 0.02 | [7] -0.022 | [8] -0.025 | [9] 0

MAT2A (UniProt P31153)
inactive: erlotinib 0.053 | [1] -0.037 | [2] 0.021 | [3] -0.024 | [4] -0.008 | [5] -0.003 | [6] -0.017 | [7] -0.021 | [8] 0.026 | [9] 0.044

MAT1A (UniProt Q00266)
inactive: erlotinib 0 | [1] -0.021 | [2] -0.008 | [3] 0.009 | [4] -0.066 | [5] 0.035 | [6] -0.051 | [7] -0.031 | [8] 0.02 | [9] 0.048

MCM6 (UniProt Q14566)
inactive: erlotinib -0.02 | [1] 0.04 | [2] 0.054 | [3] 0.003 | [4] 0.017 | [5] 0.018 | [6] 0.02 | [7] 0.007 | [8] -0.004 | [9] -0.002

MGST2 (UniProt Q99735)
inactive: erlotinib -0.033 | [1] 0.032 | [2] -0.024 | [3] 0.049 | [4] 0.105 | [5] -0.011 | [6] 0.032 | [7] -0.043 | [8] -0.084 | [9] 0.053

MFN2 (UniProt O95140)
inactive: erlotinib 0.027 | [1] 0.049 | [2] 0.007 | [3] -0.001 | [4] 0.026 | [5] 0.008 | [6] 0.041 | [7] -0.003 | [8] -0.016 | [9] -0.019

MCM4 (UniProt P33991)
inactive: erlotinib 0.019 | [1] 0.038 | [2] 0.058 | [3] 0.017 | [4] 0.044 | [5] 0.023 | [6] 0.036 | [7] 0.012 | [8] -0.026 | [9] -0.014

MGAT4B isoform 3 (UniProt Q9UQ53)
inactive: erlotinib 0.057 | [1] -0.007 | [2] 0.065 | [3] 0.005 | [4] 0.101 | [5] -0.037 | [6] 0.042 | [7] -0.039 | [8] -0.008 | [9] 0.101

MBOAT1 (UniProt Q6ZNC8)
inactive: erlotinib -0.036 | [1] -0.011 | [2] 0.034 | [3] -0.021 | [4] 0.026 | [5] -0.059 | [6] 0.08 | [7] -0.067 | [8] -0.071 | [9] 0.044

MCMBP (UniProt Q9BTE3)
inactive: erlotinib -0.016 | [1] 0.045 | [2] 0.07 | [3] 0.034 | [4] 0.084 | [5] -0.022 | [6] -0.037 | [7] 0.115 | [8] -0.068 | [9] -0.007

MBTPS1 (UniProt Q14703)
inactive: erlotinib -0.074 | [1] -0.05 | [2] -0.078 | [3] 0.204 | [4] 0.03 | [5] -0.005 | [6] -0.116 | [7] 0.012 | [8] -0.002 | [9] 0.022

MED24 (UniProt O75448)
inactive: erlotinib -0.126 | [1] 0.114 | [2] -0.083 | [3] 0.043 | [4] 0.03 | [5] 0.009 | [6] -0.041 | [7] -0.051 | [8] -0.063 | [9] -0.018

MCAT (UniProt Q8IVS2)
inactive: erlotinib -0.025 | [1] -0.019 | [2] -0.085 | [3] 0.029 | [4] 0.013 | [5] 0.034 | [6] 0.023 | [7] 0.031 | [8] 0.025 | [9] -0.01

MED1 (UniProt Q15648)
inactive: erlotinib -0.022 | [1] -0.011 | [2] -0.118 | [3] -0.001 | [4] 0.04 | [5] 0.043 | [6] -0.03 | [7] -0.043 | [8] 0.016 | [9] -0.025

MAST4 (UniProt O15021)
inactive: erlotinib -0.016 | [1] 0.101 | [2] 0.082 | [3] 0.054 | [4] 0.032 | [5] 0.048 | [6] -0.086 | [7] -0.02 | [8] -0.007 | [9] -0.094

MIB1 (UniProt Q86YT6)
inactive: erlotinib -0.03 | [1] 0.104 | [2] -0.049 | [3] -0.022 | [4] -0.073 | [5] 0.004 | [6] 0.056 | [7] 0.03 | [8] -0.074 | [9] -0.012

MFSD1 isoform 6 (UniProt Q9H3U5)
inactive: erlotinib -0.011 | [1] 0.011 | [2] 0.006 | [3] 0.029 | [4] -0.002 | [5] -0.009 | [6] 0.018 | [7] 0.014 | [8] 0.059 | [9] 0.084

MAX (UniProt P61244)
inactive: erlotinib -0.02 | [1] -0.012 | [2] -0.094 | [3] 0.019 | [4] -0.029 | [5] 0.02 | [6] -0.052 | [7] -0.05 | [8] 0.03 | [9] 0.045

MEF2D (UniProt Q14814)
inactive: erlotinib -0.01 | [1] 0.056 | [2] -0.033 | [3] 0.034 | [4] 0.02 | [5] -0.054 | [6] 0.025 | [7] -0.061 | [8] -0.029 | [9] -0.018

MCM7 (UniProt P33993)
inactive: erlotinib -0.005 | [1] 0.058 | [2] 0.061 | [3] -0.005 | [4] -0.021 | [5] 0.008 | [6] 0.031 | [7] 0.012 | [8] -0.001 | [9] -0.002

MED22 (UniProt Q15528)
inactive: erlotinib -0.11 | [1] 0.035 | [2] -0.013 | [3] -0.036 | [4] 0.061 | [5] -0.002 | [6] 0.022 | [7] -0.071 | [8] -0.156 | [9] 0.259

METTL1 (UniProt Q9UBP6)
inactive: erlotinib 0.024 | [1] 0.023 | [2] 0.101 | [3] 0.032 | [4] 0.063 | [5] -0.016 | [6] 0.081 | [7] 0.025 | [8] 0.05 | [9] 0.055

MFGE8 (UniProt Q08431)
inactive: erlotinib -0.135 | [1] -0.032 | [2] -0.149 | [3] 0.045 | [4] -0.059 | [5] -0.024 | [6] 0.024 | [7] 0.095 | [8] -0.041 | [9] -0.066

MEAK7 (UniProt Q6P9B6)
inactive: erlotinib 0.015 | [1] -0.005 | [2] 0.023 | [3] 0.054 | [4] 0.069 | [5] 0.014 | [6] -0.062 | [7] 0.092 | [8] -0.042 | [9] -0.017

MATR3 (UniProt P43243)
inactive: erlotinib 0.017 | [1] -0.013 | [2] -0.088 | [3] 0.164 | [4] -0.26 | [5] 0.195 | [6] -0.03 | [7] 0.11 | [8] 0.211 | [9] -0.152

7 neighbouring entries already listed:
MFN2 (UniProt O95140)
inactive: erlotinib 0.027 | [1] 0.049 | [2] 0.007 | [3] -0.001 | [4] 0.026 | [5] 0.008 | [6] 0.041 | [7] -0.003 | [8] -0.016 | [9] -0.019

MCM4 (UniProt P33991)
inactive: erlotinib 0.019 | [1] 0.038 | [2] 0.058 | [3] 0.017 | [4] 0.044 | [5] 0.023 | [6] 0.036 | [7] 0.012 | [8] -0.026 | [9] -0.014

MGAT4B isoform 3 (UniProt Q9UQ53)
inactive: erlotinib 0.057 | [1] -0.007 | [2] 0.065 | [3] 0.005 | [4] 0.101 | [5] -0.037 | [6] 0.042 | [7] -0.039 | [8] -0.008 | [9] 0.101

MBOAT1 (UniProt Q6ZNC8)
inactive: erlotinib -0.036 | [1] -0.011 | [2] 0.034 | [3] -0.021 | [4] 0.026 | [5] -0.059 | [6] 0.08 | [7] -0.067 | [8] -0.071 | [9] 0.044

MCMBP (UniProt Q9BTE3)
inactive: erlotinib -0.016 | [1] 0.045 | [2] 0.07 | [3] 0.034 | [4] 0.084 | [5] -0.022 | [6] -0.037 | [7] 0.115 | [8] -0.068 | [9] -0.007

MBTPS1 (UniProt Q14703)
inactive: erlotinib -0.074 | [1] -0.05 | [2] -0.078 | [3] 0.204 | [4] 0.03 | [5] -0.005 | [6] -0.116 | [7] 0.012 | [8] -0.002 | [9] 0.022

MED24 (UniProt O75448)
inactive: erlotinib -0.126 | [1] 0.114 | [2] -0.083 | [3] 0.043 | [4] 0.03 | [5] 0.009 | [6] -0.041 | [7] -0.051 | [8] -0.063 | [9] -0.018

Remaining list, next part.

MCCC2 (UniProt Q9HCC0)
inactive: erlotinib 0.019 | [1] 0.123 | [2] 0.03 | [3] 0.004 | [4] -0.04 | [5] 0.011 | [6] 0.047 | [7] 0.004 | [8] 0.004 | [9] 0.035

MEIS2 (UniProt O14770)
inactive: erlotinib 0.049 | [1] 0.213 | [3] 0.021 | [4] 0.135 | [5] 0.102 | [6] 0.046 | [7] 0.059

MED10 (UniProt Q9BTT4)
inactive: erlotinib -0.103 | [1] 0 | [2] 0.026 | [3] 0.061 | [4] 0.081 | [6] -0.007 | [7] 0.05 | [8] -0.148 | [9] 0.008
